# Test results: PubChem BioAssay AID493014 (National Center for Advancing Translational Sciences (NCATS), 2011)
# Hit rate of the full screen: of about 340,000 compounds, about 170 (0.05%) were called active. Inconclusive means that the source gave no clear call. Such entries were picked first, then a sample of the others. Calls come from the whole dose curve; as a rule, active = well fitted inhibition curve with a large enough effect in the signal ratio, with a control signal flat (not every such curve was filed as active); inconclusive = small, poorly fitted or top-dose-only effect, or effect the other way, or a change in a side signal; inactive = flat fitted curve, though single readings scatter; the % refers to the signal ratio. Potencies of inconclusive entries are doubtful fits and often do not repeat.
# Assay: qHTS Assay to Find Inhibitors of Chronic Active B-Cell Receptor Signaling;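 for activity change, negative = inhibition: plate controls were basal doxycycline-induced cells for no effect and cells given 10 µM MG132 for full effect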
# Conditions: ABC-DLBCL IkBa-CBG/CBR reporter, luminescence ratio (green luciferase fused to IkBa over red control in TMD8 lymphoma cells), 4 h; activity change, negative = inhibition: at 46.1 µM (top of the series)
# Method in brief: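 TMD8 ABC-DLBCL cells carrying doxycycline-inducible green luciferase fused to IkappaBalpha plus unfused red luciferase were exposed to compounds (up to 46 uM) for 4 hrs at 37C. Activity came from the overlap-corrected green/red luminescence ratio.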
# Potency is the fitted concentration of half-maximal effect.
Structure (SMILES),"activity change, negative = inhibition",Potency
c1cncc(-c2nc(N3CCCCCC3)c3ccccc3n2)c1,inactive,
c1ccc2[nH]c(NN=C3CCCCCC3)nc2c1,,"inconclusive: 35.5 µM [falling, single point]"
O=C1NN(c2ccccc2)C(=O)/C1=C\c1ccc(-c2cc([N+](=O)[O-])ccc2O)o1,inconclusive: -13.4%,
Cc1ccc(NC(=O)COC(=O)C2(C)CC2(Cl)Cl)cc1S(=O)(=O)N1CCOCC1 (configuration not stated),inactive,
O=S(=O)(c1cccs1)N1CCN(CC(O)COc2cccc(Br)c2)CC1 (configuration not stated),inconclusive: 1.53%,
COc1ccc(OC)c(C2NC(=O)NC(C)=C2C(=O)OC2CCCCC2)c1 (configuration not stated),inconclusive: 1.89%,
Cc1cc(OCCCCOc2ccc(S(N)(=O)=O)c(C)c2)ccc1S(N)(=O)=O,inactive,
COc1cccc(C(=O)OC2CCCN(C)C2)c1 (configuration not stated),inconclusive: 2.02%,
CCCn1ncc2c(Nc3ccc(C)c(C)c3)ncnc21,inactive,
O=C(CN1C(=O)CSc2ccc(S(=O)(=O)N3CCCC3)cc21)NCc1ccc(F)cc1Cl,inactive,
Cc1cc(C)nc(SCc2nnc(SCC(=O)N3CCOCC3)o2)n1,inconclusive: 1.68%,
COc1ccccc1C(=O)N/N=C(\C)CC(=O)Nc1ccccc1NC(C)=O,inconclusive: -16.9%,
Cc1c(CN(C)Cc2cn(C)nc2-c2ccccc2F)[nH]c2ccccc12,inconclusive: -6.62%,
Clc1ccc(SCc2cn3ccsc3n2)cc1,inconclusive: -0.536%,
Cc1c(C(=O)OCc2ccccc2)nnn1-c1nonc1N,inconclusive: 20.4%,
Cc1ccc(-c2ccc(C(=O)NCc3ccc(Cl)cc3)o2)c2ccccc12,inconclusive: -1.76%,
CCOC(=O)N1CCN(Cc2nc(N)nc(Nc3ccc(Oc4ccccc4)cc3)n2)CC1,,"inconclusive: 23.1 µM [cytotoxic, partial curve]"
S=c1[nH]c(-c2ccccc2)cn1/N=C/c1cccs1,inactive,
N#Cc1ccc(C(=O)NC23CC4CC(CC(C4)C2)C3)cc1,inconclusive: 1.93%,
CSc1ccc(C2C(C#N)=C(N)Oc3c2ccc(=O)c2c(C)oc(C)c32)cc1 (configuration not stated),inconclusive: 5.19%,
Cc1nc(NC(=S)NC(=O)COc2ccccc2Cl)ccc1Br,inconclusive: 8.11%,

Structure (SMILES),"activity change, negative = inhibition",Potency
O=C(NC(=S)Nc1ccc(Br)cn1)c1cccnc1,,"inconclusive: 5.62 µM [rising, partial curve, poor fit]"
O=S(=O)(c1cccs1)N1CCCc2ccccc21,inactive,
O=C(NNC(=S)NCC1CCCO1)c1ccc(S(=O)(=O)N2CCOCC2)cc1 (configuration not stated),inconclusive: 9.19%,
CN(C)/C=C1/Nc2ccccc2C1=O,,"inconclusive: 29.1 µM [falling, single point]"
CCCc1cc(C(=O)NCC(C)C)no1,,"inconclusive: 35.5 µM [falling, single point]"
COc1ccc(/C=N/NC(=O)c2cc3c(OC)ccc(OC)c3[nH]2)cc1O,,"inconclusive: 1.58 µM [falling, full curve, poor fit]"
CSc1ccc(C(=S)N2CCN(Cc3ccccc3)CC2)cc1,,"inconclusive: 4.61 µM [rising, partial curve, poor fit]"
CC1CCCCC12NC(=S)N(c1ccccc1)N2 (configuration not stated),inconclusive: -12.8%,
Cc1cc([N+](=O)[O-])nn1Cc1ccc(C(=O)N/N=C/c2ccc(O)cc2O)cc1,,"inconclusive: 29.1 µM [falling, single point]"
COc1cccc(OC)c1OC(=O)/C=C/c1ccc(C)o1,inconclusive: 17.6%,
O=C(CCc1ccccc1)NNC(=O)c1ccccc1C(=O)O,inconclusive: 0.32%,
COc1ccc(C2C(C#N)=C(N)SC(N)=C2C#N)cc1OC,,"inconclusive: 16.4 µM [falling, single point]"
COC1CCN(Cc2c(C(=O)N3CCc4ccccc4C3)nc3ccc(Cl)cn23)CC1,inconclusive: 0.972%,
CCc1nc(Nc2ccc(OC)c(OC)c2)c2nnn(Cc3ccccc3Cl)c2n1,inconclusive: 8.38%,
CC(=O)NC1=NN(C(C)=O)C(C)(c2cccnc2)S1 (configuration not stated),,"inconclusive: 12.6 µM [falling, single point]"
CCNc1nc(NCC)nc(Oc2ccc(N)cc2)n1,inconclusive: -25.9%,
CCCC1=NN(C(=O)C(=O)Nc2ccc(Br)cc2)C(O)(C(F)(F)F)C1 (configuration not stated),,"inconclusive: 14.1 µM [falling, partial curve]"
Cc1ccc(C)c(CN2C(=O)c3ccccc3S(=O)c3ccc(C(=O)NCCCN4CCCC4)cc32)c1 (configuration not stated),inconclusive: 1.07%,
O=c1c2ccccc2[nH]c2ccccc12,inactive,
Cc1ccccc1C(=O)O/N=C(\N)c1cccc([N+](=O)[O-])c1,,"inconclusive: 28.2 µM [falling, single point]"
CC(C)N1C(=O)/C(=C/c2nc3ccccc3c(=O)n2-c2ccccc2)c2ccccc21,,"inconclusive: 20.6 µM [cytotoxic, partial curve]"

# No new results follow: entries from further up.
Structure (SMILES),"activity change, negative = inhibition",Potency
COC1CCN(Cc2c(C(=O)N3CCc4ccccc4C3)nc3ccc(Cl)cn23)CC1,inconclusive: 0.972%,
CCc1nc(Nc2ccc(OC)c(OC)c2)c2nnn(Cc3ccccc3Cl)c2n1,inconclusive: 8.38%,
CC(=O)NC1=NN(C(C)=O)C(C)(c2cccnc2)S1 (configuration not stated),,"inconclusive: 12.6 µM [falling, single point]"
CCNc1nc(NCC)nc(Oc2ccc(N)cc2)n1,inconclusive: -25.9%,
CCCC1=NN(C(=O)C(=O)Nc2ccc(Br)cc2)C(O)(C(F)(F)F)C1 (configuration not stated),,"inconclusive: 14.1 µM [falling, partial curve]"

# Remaining list, next part:

Structure (SMILES),"activity change, negative = inhibition",Potency
Cc1ccc(C(=O)OC(C)CN2CCN(C)CC2)cc1 (configuration not stated),inactive,
CCN(C(=O)COC(=O)c1c(-c2ccccc2)noc1C)C1CCS(=O)(=O)C1 (configuration not stated),,"inconclusive: 20.6 µM [falling, single point]"
Cc1ccc(C2=NN(C(=O)CCl)C(c3cccs3)C2)o1 (configuration not stated),,"inconclusive: 20.6 µM [falling, single point]"
Cc1cc(/C=C2/NC(=O)NC2=O)c(C)n1-c1ccc(C#N)cc1,inconclusive: 7.84%,
Cc1nn(C)c(=O)n1-c1ccc(Oc2ccccc2)cc1,inconclusive: 18.9%,
CCOC(=O)N1CC=C2C(C#N)=C(N)C(C#N)(C#N)[C@H](c3cccs3)C2C1 (some centres not stated),inconclusive: -13.7%,
c1csc(-c2nc(NCCCN3CCOCC3)c3ccccc3n2)c1,inconclusive: 0.024%,
c1ccc(CNc2nc(NCc3ccco3)nc(N3CCOCC3)n2)cc1,inconclusive: -5.61%,
COC1CCCCC1Nc1cccc(SC)c1 (configuration not stated),inconclusive: 7.72%,
O=C(Nc1nc2cc3c(cc2s1)OCCO3)c1cccs1,,"inconclusive: 3.98 µM [rising, full curve, poor fit]"
CCCCCCCNC(=O)CC(NS(=O)(=O)c1ccc(NC(C)=O)cc1)C(C)C (configuration not stated),inconclusive: -0.661%,
CC1(C)N=C(N)N=C(N)N1c1ccc(C(=O)O)cc1,inactive,
CC(C)c1[nH]nc2c1C(c1cccs1)C(C#N)=C(N)O2 (configuration not stated),,"inconclusive: 2.91 µM [falling, full curve]"
Cc1ccc(NC(=O)NC2C(NC(=O)Nc3ccc(C)cc3)N(C)C(=O)N2C)cc1 (configuration not stated),inconclusive: 7.7%,
O=C(N/N=C/c1ccc([N+](=O)[O-])s1)c1ccncc1,inactive,
CCOC(=O)N1CCC(=NNC(=O)Cn2ccc(C(F)(F)F)n2)CC1,inconclusive: -5.9%,
CN1C(=O)CCC(CCC(=O)O)(c2ccccc2O)C1=O (configuration not stated),inactive,
CC(C)c1ccc(/C=C/C(=O)Nc2nncs2)cc1,inactive,
COc1ccc(OCC(=O)Nc2cc(OC)ccc2N2CCCCC2)cc1,,"inconclusive: 2.51 µM [falling, partial curve]"
O=C(NCCCN1CCOCC1)[C@@H]1CSC2c3ccccc3C(=O)N21 (some centres not stated),inconclusive: 7.27%,
Cc1noc(NS(=O)(=O)c2ccc(NC(=O)C34CC5CC(C3)CC(n3cnc(Cl)n3)(C5)C4)cc2)c1C,inconclusive: 9.71%,

Structure (SMILES),"activity change, negative = inhibition",Potency
COC(=O)C1=C(C(=O)OC)[C@@H]2Nc3ccccc3[C@@]23C[C@@H](C(=O)OC)N(C(C)=O)C3=N1,inconclusive: 1.17%,
COc1cc(SC)ccc1C(=O)OCc1nc2ccsc2c(=O)[nH]1,inconclusive: 11.2%,
CC1CCCCN1S(=O)(=O)c1cnc(Cl)c(Br)c1 (configuration not stated),inconclusive: -4.97%,
CC(C)(C)c1csc(NC(=O)Cc2ccc(S(=O)(=O)N3CCOCC3)s2)n1,,"inconclusive: 25.9 µM [rising, single point]"
CCS(=O)(=O)n1nc(-c2ccc(C)cc2)nc1N,inconclusive: 11.7%,
CCc1nnc(NS(=O)(=O)c2ccc(NC(=O)/C=C/c3ccc(OC)cc3OC)cc2)s1,inconclusive: -10.9%,
Cc1ccc2[nH]c(=O)c(CN(Cc3cccs3)S(=O)(=O)c3ccc4c(c3)OCCO4)cc2c1,inactive,
O=C1NCCN1Cc1cccc(Cl)c1,inactive,
CC(=O)Nc1ccc(S(=O)(=O)N/N=C/c2ccc(C)s2)cc1,inconclusive: 6.32%,
O=C(Nc1nnc(C(F)(F)F)s1)c1c(F)cccc1F,inconclusive: -8.52%,
CCOC(=O)C1CCN(C(=O)COC(=O)c2ccc3[nH]c4c(c3c2)CCCC4)CC1,inactive,
COc1cc(/C=N/NC(=O)NC2CCCCC2)cc(OC)c1O,,"inconclusive: 22.4 µM [falling, single point]"
O=c1[nH]c(/C=C\c2ccccc2F)nc(O)c1[N+](=O)[O-],inactive,
CCCn1nnc(NC(=S)NC(=O)/C=C/c2ccc(Cl)cc2)n1,inactive,
CN1CCN(C(=O)C2(NC(=O)Nc3ccccc3Cl)CCCCC2)CC1,,"inconclusive: 0.00411 µM [falling, full curve, poor fit]"
CC(C)(C)[C@H]1C=C(C(=O)N2CCN(Cc3ccccc3)CC2)O[C@@H](OCCCCO)C1,,"inconclusive: 22.4 µM [falling, single point]"
COc1cccc(NC(=O)Cc2nnc(SCC(=O)c3ccccc3)n2C)c1,inconclusive: -4.5%,
COc1ccccc1CNC(=O)CSc1cc(C)[nH]c(=O)n1,inactive,
CC(C)NC(=O)C(=O)c1cn(C)c2ccccc12,,"inconclusive: 31.6 µM [rising, partial curve]"
